From paper PMC5852159, “Hydrogen peroxide positively regulates brassinosteroid signaling through oxidation of the BRASSINAZOLE-RESISTANT1 transcription factor” (Nature Communications, 2018)
Results are given in words; binding and its absence hold for the method and conditions named. For some assays here: Binding seen in cells or lysates may run through a third protein. Some results given as binding are weak or reduced against the parent protein; the word gives no strength. For some assays here: Where a sequence is shown, tags or fusion partners need not be part of it. One block for each substance: values may come before it.

Columns and labels:
[1] = molecular target: T1, ARF6 (construct of the co-immunoprecipitation, Supplementary Fig. 9g) (Arabidopsis thaliana) (UniProt Q9ZTX8); assay: co-IP; extracts of Arabidopsis mesophyll protoplasts transformed with BZR1-Myc and/or PIF4-YFP, mock or 100 µM H2O2 for 1 h; GFP-Trap agarose beads; blots with anti-Myc and anti-YFP (ARF6: Supplementary Fig. 9g)
T1 sequence: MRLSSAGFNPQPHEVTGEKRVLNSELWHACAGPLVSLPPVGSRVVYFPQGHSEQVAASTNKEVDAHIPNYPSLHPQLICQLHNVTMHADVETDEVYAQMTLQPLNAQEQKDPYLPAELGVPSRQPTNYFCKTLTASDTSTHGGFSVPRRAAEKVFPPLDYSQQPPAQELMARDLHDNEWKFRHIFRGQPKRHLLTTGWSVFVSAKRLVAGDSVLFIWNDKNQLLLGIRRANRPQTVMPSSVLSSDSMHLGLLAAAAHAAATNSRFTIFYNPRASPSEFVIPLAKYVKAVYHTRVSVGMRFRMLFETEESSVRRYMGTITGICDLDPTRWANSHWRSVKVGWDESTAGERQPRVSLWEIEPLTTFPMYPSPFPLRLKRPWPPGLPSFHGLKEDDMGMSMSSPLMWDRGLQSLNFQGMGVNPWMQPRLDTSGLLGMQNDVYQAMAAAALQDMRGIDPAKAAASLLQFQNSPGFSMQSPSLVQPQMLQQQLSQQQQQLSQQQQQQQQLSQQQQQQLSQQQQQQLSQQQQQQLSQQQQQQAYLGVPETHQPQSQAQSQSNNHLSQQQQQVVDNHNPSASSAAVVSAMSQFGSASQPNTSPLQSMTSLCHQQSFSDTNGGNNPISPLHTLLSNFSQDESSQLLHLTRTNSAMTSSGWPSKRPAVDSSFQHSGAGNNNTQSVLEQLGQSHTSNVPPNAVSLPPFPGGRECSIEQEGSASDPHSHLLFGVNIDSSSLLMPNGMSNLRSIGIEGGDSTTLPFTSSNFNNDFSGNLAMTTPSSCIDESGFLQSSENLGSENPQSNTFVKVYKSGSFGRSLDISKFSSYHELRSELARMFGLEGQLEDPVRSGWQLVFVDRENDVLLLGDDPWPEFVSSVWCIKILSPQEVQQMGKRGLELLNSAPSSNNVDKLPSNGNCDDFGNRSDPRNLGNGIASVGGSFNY

[2] = molecular target: T2, PIF4-YFP (Arabidopsis thaliana) (UniProt Q8W2F3); assay: as above
T2 sequence: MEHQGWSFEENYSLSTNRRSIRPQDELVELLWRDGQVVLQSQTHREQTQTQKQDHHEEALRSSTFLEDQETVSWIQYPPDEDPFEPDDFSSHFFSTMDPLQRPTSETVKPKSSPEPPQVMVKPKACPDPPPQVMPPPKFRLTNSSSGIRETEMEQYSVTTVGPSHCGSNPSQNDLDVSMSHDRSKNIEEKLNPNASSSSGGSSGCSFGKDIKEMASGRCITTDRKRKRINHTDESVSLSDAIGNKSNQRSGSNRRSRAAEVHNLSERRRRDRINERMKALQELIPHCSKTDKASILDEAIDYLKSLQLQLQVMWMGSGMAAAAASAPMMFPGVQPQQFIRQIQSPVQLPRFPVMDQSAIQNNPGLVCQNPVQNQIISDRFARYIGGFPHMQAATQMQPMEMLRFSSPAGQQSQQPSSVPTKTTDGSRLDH

[3] = molecular target: T3, TRXh5-Myc (p35S:TRXh5-Myc) (Arabidopsis thaliana) (UniProt Q39241); assay: co-IP; extracts of transgenic Arabidopsis expressing pBZR1:BZR1-YFP only or with p35S:TRXh5-Myc; Myc-trap beads; blots with anti-Myc or anti-YFP
T3 sequence: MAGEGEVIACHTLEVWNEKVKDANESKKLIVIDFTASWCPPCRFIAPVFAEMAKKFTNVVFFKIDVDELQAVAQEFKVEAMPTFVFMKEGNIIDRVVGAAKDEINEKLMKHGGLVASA

[4] = molecular target: T4, TRXh5-nYFP (Arabidopsis thaliana) (UniProt Q39241); assay: split reporter; BiFC in tobacco leaves: BZR1-cYFP or BES1-cYFP co-expressed with TRX-h proteins fused to nYFP
T4 sequence: T3 sequence

[5] = molecular target: T5, ARF6-nYFP (rBiFC, pBiFCt-2in1-CC) (Arabidopsis thaliana) (UniProt Q9ZTX8); assay: split reporter; ratiometric BiFC (rBiFC), both partners and RFP reference on one vector (pBiFCt-2in1-CC), epidermal cells of tobacco leaves, mock or 1 mM H2O2 for 30 min; YFP/RFP ratio
T5 sequence: T1 sequence

[6] = molecular target: T6, PIF4-nYFP (rBiFC, pBiFCt-2in1-CC) (Arabidopsis thaliana) (UniProt Q8W2F3); assay: as above
T6 sequence: T2 sequence

[7] = molecular target: T7, GST-PIF4 (glutathione-S-transferase-PHYTOCHROME … FACTOR4) (Arabidopsis thaliana) (UniProt Q8W2F3); assay: pull-down; glutathione beads with 1 µg GST fusion incubated with 1 µg MBP or MBP fusion; 20 mM Tris-HCl pH 7.5, 100 mM NaCl, 1 mM EDTA, with or without 1 mM H2O2, 4 °C, 1 h; washed with 300 mM NaCl, 0.1% Nonidet P-40; blots with anti-MBP and anti-GST; both purified
T7 sequence: T2 sequence

[8] = molecular target: T8, GST-ARF6 (GST-AUXIN RESPONSE FACTOR6) (Arabidopsis thaliana) (UniProt Q9ZTX8); assay: as above
T8 sequence: T1 sequence

- binding [1]: binds
- binding [2]: binds
Substance: BZR1-Myc (from UniProt Q8S307 1-336)

- binding [3]: binds
Substance: BZR1-YFP (pBZR1:BZR1-YFP) (from UniProt Q8S307 1-336)

- binding [4]: binds
Substance: BZR1-cYFP (BiFC, pX-cYFP) (from UniProt Q8S307 1-336)

- binding [5]: binds
- binding [6]: binds
Substance: BZR1-cYFP (rBiFC, pBiFCt-2in1-CC) (from UniProt Q8S307 1-336)

- binding [5]: binds weakly
- binding [6]: binds weakly
Substance: BZR1^5S-cYFP (rBiFC, pBiFCt-2in1-CC) (from UniProt Q8S307 1-336)

- binding [7]: binds
- binding [8]: binds
Substance: MBP-BZR1 (maltose-binding protein-BRASSINAZOLE-…1 fusion) (from UniProt Q8S307 1-336)

- binding [7]: binds
Substance: MBP-BZR1^C63S (from UniProt Q8S307 1-336)
